Results are given in words; binding and its absence hold for the method and conditions named. Binding seen in cells or lysates may run through a third protein. Some entries that bind do so weakly or less than the wild type. Sequences can lack the tags named with a protein.

Sequences of proteins named here, by UniProt entry; tags and fusion partners are left off. A change or cut given only in a name is not applied to a line headed by its entry.
UniProt P61007: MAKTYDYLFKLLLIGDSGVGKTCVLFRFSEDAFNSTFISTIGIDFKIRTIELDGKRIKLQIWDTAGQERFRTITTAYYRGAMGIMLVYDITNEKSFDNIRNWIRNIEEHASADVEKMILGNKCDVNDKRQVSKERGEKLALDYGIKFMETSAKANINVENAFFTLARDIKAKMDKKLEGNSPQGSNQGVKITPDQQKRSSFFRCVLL

Drawing on article PMC7199855, “GRAF2, WDR44, and MICAL1 mediate Rab8/10/11–dependent export of E-cadherin, MMP14, and CFTR ΔF508” (The Journal of Cell Biology, 2020), this text covers binding for one molecule.

Holding throughout (assay): co-IP; transfected 293T, IP with α-GFP and Protein G Sepharose; 20 mM Hepes pH 7.4, 150 mM NaCl, 2 mM EDTA, 1% IGEPAL CA-630; Western blot
On the technique in general: Immunoblotting shows a protein as a band on a membrane.

For one test, the target named is GFP-Rab8a Q67L (canine) (UniProt P61007).
The next test has as its target GFP-Rab8a T22N (canine) (UniProt P61007).
The target of the next test is T1, GRAF1b-GFP (human) (UniProt Q9UNA1).
T1 sequence: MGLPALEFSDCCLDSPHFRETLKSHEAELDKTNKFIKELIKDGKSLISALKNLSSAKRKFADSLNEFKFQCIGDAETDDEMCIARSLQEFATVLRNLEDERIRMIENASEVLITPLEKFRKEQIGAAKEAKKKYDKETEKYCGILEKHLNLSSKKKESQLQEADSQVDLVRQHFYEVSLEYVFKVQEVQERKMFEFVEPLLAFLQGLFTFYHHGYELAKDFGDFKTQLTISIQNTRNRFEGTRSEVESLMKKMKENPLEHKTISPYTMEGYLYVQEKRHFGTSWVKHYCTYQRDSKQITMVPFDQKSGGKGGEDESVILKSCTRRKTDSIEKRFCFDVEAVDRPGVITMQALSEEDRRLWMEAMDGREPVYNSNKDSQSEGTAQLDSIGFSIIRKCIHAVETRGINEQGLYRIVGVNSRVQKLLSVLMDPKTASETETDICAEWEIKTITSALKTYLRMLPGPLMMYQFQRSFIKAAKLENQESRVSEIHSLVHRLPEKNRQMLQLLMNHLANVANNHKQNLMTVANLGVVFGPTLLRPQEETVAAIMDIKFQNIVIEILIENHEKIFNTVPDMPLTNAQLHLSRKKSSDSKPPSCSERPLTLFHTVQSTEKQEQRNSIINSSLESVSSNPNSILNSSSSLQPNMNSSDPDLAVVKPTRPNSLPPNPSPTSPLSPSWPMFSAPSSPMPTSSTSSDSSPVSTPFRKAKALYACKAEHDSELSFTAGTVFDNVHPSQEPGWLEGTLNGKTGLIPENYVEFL

The next test addresses T2, GRAF2-GFP (human) (UniProt A1A4S6).
T2 sequence: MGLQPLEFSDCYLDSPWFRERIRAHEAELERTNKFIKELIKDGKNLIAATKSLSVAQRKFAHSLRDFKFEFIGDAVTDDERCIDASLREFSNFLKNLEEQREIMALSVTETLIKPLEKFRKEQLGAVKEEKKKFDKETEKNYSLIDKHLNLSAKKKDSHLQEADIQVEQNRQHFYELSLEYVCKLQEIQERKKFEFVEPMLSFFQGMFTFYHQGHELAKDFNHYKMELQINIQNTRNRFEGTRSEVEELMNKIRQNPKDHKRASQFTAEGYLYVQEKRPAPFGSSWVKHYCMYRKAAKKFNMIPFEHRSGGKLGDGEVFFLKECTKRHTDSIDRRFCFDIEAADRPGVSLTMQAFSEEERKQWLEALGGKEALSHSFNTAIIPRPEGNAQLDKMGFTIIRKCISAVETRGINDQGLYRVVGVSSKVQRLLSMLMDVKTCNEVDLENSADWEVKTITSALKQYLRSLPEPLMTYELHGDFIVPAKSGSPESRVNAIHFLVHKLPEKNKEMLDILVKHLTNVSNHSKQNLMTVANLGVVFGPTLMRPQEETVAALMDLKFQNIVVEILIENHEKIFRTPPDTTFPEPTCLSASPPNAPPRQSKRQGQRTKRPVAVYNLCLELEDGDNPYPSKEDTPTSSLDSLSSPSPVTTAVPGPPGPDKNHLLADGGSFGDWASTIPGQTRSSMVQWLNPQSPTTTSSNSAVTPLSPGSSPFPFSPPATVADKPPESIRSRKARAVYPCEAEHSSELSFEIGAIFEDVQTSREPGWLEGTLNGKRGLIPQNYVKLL

B1: myc-MICAL1 (protein, UniProt Q8TDZ2 1-1067)
chain: MASPTSTNPAHAHFESFLQAQLCQDVLSSFQELCGALGLEPGGGLPQYHKIKDQLNYWSAKSLWTKLDKRAGQPVYQQGRACTSTKCLVVGAGPCGLRVAVELALLGARVVLVEKRTKFSRHNVLHLWPFTIHDLRALGAKKFYGRFCTGTLDHISIRQLQLLLLKVALLLGVEIHWGVTFTGLQPPPRKGSGWRAQLQPNPPAQLANYEFDVLISAAGGKFVPEGFKVREMRGKLAIGITANFVNGRTVEETQVPEISGVARIYNQSFFQSLLKATGIDLENIVYYKDDTHYFVMTAKKQCLLRLGVLRQDWPDTNRLLGSANVVPEALQRFTRAAADFATHGKLGKLEFAQDAHGQPDVSAFDFTSMMRAESSARVQEKHGARLLLGLVGDCLVEPFWPLGTGVARGFLAAFDAAWMVKRWAEGAESLEVLAERESLYQLLSQTSPENMHRNVAQYGLDPATRYPNLNLRAVTPNQVRDLYDVLAKEPVQRNNDKTDTGMPATGSAGTQEELLRWCQEQTAGYPGVHVSDLSSSWADGLALCALVYRLQPGLLEPSELQGLGALEATAWALKVAENELGITPVVSAQAVVAGSDPLGLIAYLSHFHSAFKSMAHSPGPVSQASPGTSSAVLFLSKLQRTLQRSRAKENAEDAGGKKLRLEMEAETPSTEVPPDPEPGVPLTPPSQHQEAGAGDLCALCGEHLYVLERLCVNGHFFHRSCFRCHTCEATLWPGGYEQHPGDGHFYCLQHLPQTDHKAEGSDRGPESPELPTPSENSMPPGLSTPTASQEGAGPVPDPSQPTRRQIRLSSPERQRLSSLNLTPDPEMEPPPKPPRSCSALARHALESSFVGWGLPVQSPQALVAMEKEEKESPFSSEEEEEDVPLDSDVEQALQTFAKTSGTMNNYPTWRRTLLRRAKEEEMKRFCKAQTIQRRLNEIEAALRELEAEGVKLELALRRQSSSPEQQKKLWVGQLLQLVDKKNSLVAEEAELMITVQELNLEEKQWQLDQELRGYMNREENLKTAADRQAEDQVLRKLVDLVNQRDALIRFQEERRLSELALGTGAQG
Take B1: the binding result is listed as “binds” with GFP-Rab8a Q67L (canine), “no binding” with GFP-Rab8a T22N (canine), “binds” with GRAF1b-GFP (human) and “binds” with GRAF2-GFP (human).
